These are yes or no findings as the source states them, for the method shown. In cells and extracts the contact can be indirect. A yes stands for co-enrichment or nearness to the bait. Other partners may have been found.
T1: FAMA-TbID-Venus (FAMApro::FAMA-TbID-mVenus in fama-1) (Arabidopsis thaliana) (UniProt Q56YJ8)
T1 sequence: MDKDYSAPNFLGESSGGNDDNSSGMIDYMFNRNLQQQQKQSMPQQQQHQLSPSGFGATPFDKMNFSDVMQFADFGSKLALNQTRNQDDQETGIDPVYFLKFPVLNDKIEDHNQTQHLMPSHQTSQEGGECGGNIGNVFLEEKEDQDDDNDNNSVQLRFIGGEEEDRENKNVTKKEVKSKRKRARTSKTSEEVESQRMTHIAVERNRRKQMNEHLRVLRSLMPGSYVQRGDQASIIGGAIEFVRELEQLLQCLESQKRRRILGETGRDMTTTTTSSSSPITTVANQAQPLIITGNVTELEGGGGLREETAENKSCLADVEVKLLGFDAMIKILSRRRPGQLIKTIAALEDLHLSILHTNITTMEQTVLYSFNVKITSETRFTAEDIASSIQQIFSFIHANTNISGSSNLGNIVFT

Chains of the proteins cited; added tags and fusions are not shown. Lines headed by an entry give the natural chain unless they say otherwise; changes in a name come on top. Residues count along the entry.
UniProt Q38931: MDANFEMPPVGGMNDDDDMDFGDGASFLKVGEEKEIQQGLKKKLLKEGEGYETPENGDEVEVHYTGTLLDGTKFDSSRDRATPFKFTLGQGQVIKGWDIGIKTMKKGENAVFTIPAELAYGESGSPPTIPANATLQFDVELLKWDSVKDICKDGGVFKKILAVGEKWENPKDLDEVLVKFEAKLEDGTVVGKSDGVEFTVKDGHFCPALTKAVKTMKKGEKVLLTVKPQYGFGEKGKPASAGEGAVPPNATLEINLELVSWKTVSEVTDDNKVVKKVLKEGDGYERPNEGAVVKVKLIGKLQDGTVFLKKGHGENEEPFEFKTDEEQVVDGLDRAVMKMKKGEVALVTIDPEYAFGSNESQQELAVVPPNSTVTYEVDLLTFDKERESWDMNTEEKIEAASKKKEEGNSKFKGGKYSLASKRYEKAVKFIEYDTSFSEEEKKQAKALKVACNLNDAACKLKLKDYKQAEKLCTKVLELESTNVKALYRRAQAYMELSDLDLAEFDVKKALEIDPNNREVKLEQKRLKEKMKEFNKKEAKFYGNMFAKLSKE
UniProt P22953: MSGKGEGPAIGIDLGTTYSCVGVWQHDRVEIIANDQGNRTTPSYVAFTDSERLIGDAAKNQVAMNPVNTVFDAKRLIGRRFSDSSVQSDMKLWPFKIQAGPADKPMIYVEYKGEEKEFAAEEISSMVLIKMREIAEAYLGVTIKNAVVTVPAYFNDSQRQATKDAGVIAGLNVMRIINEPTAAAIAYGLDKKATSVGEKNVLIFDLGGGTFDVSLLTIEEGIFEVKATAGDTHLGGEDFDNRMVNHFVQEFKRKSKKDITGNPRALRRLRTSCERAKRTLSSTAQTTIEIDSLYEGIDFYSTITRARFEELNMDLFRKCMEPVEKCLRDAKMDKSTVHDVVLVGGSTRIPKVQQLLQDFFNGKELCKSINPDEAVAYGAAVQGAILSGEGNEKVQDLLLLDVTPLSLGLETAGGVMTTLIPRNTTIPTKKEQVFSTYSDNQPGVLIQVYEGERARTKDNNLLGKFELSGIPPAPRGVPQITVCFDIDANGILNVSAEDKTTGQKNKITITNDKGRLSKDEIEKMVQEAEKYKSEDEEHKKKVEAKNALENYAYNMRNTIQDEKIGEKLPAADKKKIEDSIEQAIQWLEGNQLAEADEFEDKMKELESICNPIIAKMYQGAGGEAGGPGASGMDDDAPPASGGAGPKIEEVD
UniProt O23487: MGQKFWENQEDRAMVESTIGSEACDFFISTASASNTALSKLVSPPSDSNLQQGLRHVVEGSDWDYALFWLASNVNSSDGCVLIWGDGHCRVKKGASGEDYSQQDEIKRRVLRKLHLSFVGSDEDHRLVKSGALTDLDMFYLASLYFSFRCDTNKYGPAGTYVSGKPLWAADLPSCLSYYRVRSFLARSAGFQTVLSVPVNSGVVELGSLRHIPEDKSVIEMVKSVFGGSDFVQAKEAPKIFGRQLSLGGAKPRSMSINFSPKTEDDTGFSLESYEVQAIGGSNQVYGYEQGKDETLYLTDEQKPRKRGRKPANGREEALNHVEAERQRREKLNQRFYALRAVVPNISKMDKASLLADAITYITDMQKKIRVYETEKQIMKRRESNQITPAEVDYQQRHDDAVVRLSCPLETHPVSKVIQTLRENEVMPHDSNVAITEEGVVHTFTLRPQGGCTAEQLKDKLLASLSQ
UniProt F4KJ40: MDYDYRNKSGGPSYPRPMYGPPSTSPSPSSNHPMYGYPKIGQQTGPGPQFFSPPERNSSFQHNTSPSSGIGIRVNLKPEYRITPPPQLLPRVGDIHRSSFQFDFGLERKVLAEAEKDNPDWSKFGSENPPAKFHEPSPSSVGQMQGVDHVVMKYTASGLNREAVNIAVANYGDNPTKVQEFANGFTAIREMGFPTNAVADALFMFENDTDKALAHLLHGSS
UniProt Q94KE2: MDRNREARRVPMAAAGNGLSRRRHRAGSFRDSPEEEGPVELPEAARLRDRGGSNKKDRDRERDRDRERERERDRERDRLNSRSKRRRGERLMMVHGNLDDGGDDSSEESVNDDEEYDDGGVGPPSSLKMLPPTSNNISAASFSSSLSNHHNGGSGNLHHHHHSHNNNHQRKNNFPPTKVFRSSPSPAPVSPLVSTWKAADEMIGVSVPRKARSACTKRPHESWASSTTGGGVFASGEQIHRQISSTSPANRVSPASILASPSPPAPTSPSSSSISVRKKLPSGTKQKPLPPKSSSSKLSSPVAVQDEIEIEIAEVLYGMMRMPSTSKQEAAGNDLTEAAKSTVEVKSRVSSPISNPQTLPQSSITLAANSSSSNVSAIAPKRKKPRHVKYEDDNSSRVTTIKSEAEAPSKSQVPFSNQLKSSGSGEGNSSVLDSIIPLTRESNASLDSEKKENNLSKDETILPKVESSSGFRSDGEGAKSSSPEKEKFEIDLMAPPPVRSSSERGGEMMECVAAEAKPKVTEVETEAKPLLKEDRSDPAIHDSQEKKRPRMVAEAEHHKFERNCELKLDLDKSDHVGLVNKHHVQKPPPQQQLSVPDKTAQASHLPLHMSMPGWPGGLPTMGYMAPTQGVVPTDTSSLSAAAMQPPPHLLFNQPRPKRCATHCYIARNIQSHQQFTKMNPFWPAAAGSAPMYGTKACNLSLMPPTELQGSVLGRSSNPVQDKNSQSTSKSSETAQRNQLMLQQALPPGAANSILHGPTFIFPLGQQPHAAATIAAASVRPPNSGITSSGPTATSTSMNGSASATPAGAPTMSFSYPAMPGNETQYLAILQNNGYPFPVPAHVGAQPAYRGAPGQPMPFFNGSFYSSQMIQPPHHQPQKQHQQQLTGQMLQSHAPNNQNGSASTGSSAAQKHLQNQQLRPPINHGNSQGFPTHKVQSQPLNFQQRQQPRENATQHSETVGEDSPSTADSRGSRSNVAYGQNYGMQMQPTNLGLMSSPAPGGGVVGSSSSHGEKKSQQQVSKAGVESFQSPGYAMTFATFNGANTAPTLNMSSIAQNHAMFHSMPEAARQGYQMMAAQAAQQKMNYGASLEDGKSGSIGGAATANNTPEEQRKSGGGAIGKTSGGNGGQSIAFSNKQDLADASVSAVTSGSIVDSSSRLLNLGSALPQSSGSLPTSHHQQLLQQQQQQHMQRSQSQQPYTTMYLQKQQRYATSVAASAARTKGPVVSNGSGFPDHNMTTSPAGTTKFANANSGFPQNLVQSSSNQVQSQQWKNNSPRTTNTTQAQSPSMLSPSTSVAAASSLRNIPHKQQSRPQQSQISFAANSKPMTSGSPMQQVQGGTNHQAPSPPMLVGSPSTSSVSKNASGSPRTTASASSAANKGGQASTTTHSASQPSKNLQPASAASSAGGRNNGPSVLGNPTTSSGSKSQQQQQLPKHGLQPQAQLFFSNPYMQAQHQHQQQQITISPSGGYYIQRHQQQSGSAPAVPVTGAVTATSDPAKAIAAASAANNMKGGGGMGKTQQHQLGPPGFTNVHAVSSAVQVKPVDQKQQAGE
UniProt Q9ZPY8: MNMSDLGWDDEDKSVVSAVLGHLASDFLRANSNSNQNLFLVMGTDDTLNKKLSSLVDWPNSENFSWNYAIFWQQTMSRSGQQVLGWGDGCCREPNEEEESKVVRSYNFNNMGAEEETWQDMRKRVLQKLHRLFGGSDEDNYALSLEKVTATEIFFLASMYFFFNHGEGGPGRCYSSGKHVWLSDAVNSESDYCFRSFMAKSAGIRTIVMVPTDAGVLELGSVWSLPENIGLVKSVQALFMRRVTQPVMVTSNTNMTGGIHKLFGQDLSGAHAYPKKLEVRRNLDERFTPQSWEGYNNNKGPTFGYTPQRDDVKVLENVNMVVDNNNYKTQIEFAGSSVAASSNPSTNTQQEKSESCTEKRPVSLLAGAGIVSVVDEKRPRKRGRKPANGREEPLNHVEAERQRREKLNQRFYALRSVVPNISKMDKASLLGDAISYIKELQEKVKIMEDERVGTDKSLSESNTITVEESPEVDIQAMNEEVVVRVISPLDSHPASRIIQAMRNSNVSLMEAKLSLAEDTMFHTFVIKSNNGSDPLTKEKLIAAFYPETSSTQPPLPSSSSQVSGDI
UniProt P25071: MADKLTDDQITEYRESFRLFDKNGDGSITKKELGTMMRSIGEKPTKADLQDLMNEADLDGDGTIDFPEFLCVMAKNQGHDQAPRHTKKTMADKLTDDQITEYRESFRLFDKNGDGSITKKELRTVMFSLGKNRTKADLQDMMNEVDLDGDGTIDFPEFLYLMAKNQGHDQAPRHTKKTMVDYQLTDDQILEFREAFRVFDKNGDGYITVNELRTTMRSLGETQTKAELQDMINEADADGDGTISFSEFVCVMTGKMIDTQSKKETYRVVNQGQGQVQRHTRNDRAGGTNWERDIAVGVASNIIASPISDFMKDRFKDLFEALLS
UniProt P22954: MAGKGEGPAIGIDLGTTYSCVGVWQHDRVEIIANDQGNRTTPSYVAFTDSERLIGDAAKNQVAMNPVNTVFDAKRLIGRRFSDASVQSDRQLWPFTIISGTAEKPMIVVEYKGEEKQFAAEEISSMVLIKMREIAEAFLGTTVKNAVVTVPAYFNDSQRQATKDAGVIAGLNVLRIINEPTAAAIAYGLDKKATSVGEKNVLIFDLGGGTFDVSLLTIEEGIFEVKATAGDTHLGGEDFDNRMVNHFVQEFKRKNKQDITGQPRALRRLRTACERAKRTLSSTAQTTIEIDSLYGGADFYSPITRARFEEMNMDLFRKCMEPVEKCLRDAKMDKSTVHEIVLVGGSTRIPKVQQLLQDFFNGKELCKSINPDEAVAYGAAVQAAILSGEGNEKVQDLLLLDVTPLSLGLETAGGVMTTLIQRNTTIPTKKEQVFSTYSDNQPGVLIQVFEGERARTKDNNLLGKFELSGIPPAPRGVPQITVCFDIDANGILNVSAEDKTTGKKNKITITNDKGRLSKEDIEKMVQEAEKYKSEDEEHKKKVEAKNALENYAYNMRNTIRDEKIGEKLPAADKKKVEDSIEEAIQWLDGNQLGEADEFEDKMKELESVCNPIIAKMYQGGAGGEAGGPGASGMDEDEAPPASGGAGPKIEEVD
UniProt Q9S9N6, residues 45-461: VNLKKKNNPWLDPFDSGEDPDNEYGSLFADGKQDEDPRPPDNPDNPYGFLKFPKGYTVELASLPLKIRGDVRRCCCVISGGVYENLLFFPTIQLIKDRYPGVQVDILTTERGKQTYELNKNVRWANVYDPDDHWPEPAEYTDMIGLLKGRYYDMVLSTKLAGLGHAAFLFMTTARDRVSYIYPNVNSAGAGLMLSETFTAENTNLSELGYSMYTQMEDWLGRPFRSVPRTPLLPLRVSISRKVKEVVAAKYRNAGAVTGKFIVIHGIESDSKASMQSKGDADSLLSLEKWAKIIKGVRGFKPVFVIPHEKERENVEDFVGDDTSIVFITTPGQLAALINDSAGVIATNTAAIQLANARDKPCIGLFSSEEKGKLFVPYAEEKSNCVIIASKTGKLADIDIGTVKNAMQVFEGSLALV
UniProt F4JZZ1: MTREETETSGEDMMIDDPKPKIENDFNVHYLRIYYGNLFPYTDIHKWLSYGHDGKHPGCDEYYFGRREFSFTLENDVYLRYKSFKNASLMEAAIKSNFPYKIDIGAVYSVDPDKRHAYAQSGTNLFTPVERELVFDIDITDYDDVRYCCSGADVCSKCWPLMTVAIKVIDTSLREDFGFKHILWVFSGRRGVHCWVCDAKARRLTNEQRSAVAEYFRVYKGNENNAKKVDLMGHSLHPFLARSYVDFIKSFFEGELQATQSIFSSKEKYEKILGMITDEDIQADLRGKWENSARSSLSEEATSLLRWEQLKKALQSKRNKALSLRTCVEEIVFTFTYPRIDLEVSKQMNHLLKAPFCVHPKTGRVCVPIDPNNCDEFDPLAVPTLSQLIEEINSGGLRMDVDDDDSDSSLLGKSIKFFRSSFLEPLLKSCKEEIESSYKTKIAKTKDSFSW
UniProt P93755: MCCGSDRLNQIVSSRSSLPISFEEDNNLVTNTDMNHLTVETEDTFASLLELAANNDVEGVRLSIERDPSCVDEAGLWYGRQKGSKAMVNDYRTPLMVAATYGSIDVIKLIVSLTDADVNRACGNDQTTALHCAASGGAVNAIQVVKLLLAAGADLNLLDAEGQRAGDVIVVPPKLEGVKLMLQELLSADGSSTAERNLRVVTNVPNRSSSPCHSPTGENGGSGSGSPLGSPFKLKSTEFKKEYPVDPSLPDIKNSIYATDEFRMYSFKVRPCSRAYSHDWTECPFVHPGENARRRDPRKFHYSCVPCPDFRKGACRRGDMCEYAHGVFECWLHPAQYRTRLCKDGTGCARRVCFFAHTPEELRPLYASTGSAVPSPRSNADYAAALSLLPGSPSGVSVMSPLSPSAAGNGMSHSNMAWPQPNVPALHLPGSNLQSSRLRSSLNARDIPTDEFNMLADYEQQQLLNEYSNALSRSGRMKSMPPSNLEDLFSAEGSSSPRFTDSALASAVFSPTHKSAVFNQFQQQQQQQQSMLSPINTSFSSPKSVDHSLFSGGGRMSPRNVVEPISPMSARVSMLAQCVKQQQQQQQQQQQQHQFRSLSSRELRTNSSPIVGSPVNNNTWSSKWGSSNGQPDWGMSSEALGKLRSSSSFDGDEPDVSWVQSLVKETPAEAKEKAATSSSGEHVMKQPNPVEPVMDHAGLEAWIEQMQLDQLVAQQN


Target: T1, FAMA-TbID-Venus (FAMApro::FAMA-TbID-mVenus in fama-1) (Arabidopsis thaliana)
Experiment: proximity labelling; FAMApro::FAMA-TbID-Venus in 5-day-old Arabidopsis seedlings, 50 uM biotin for 0, 0.5 or 3 h; biotinylated proteins purified on streptavidin beads, on-bead digest, LC-MS/MS with label-free quantification; filtered for enrichment against WT, nuclear TbID (FAMAnucTbID) and untreated samples; three biological replicates

Row | Molecule | binding
1 | FKBP62 (from UniProt Q38931 1-551) | binds
2 | HIP1 (from UniProt Q93YR3) | binds
3 | HSP70-1 (from UniProt P22953 1-651) | binds
4 | HSP70-3 (from UniProt O65719 1-649) | binds
5 | PAL2 (from UniProt P45724 1-717) | binds
6 | PAT1 | binds
7 | SEUSS (from UniProt Q8W234 1-877) | binds
8 | JAM3 (from UniProt O23487) | binds
9 | AT5G53330 (undescribed protein) (from UniProt F4KJ40) | binds
10 | AT1G50570 (undescribed protein) | binds
11 | TIC (from UniProt Q94KE2 1-1550) | binds
12 | AIB (from UniProt Q9ZPY8 1-566) | binds
13 | PDE327 (from UniProt F4JQE2) | binds
14 | BZR1 (from UniProt Q8S307 1-336) | binds
15 | IAP1 | binds
16 | TCH3 (from UniProt P25071 1-324) | binds

Row | Molecule | binding
17 | HSP70-2 (from UniProt P22954 1-653) | binds
18 | NDH48 (from UniProt Q9S9N6 45-461) | binds
19 | AT4G25290 (undescribed protein) (from UniProt F4JSJ6) | binds
20 | AT1G30070 (undescribed protein) | binds
21 | POLA3 (from UniProt F4JZZ1) | binds
22 | OXS2 (from UniProt P93755) | binds
23 | AT5G15680 (undescribed protein) (from UniProt F4KB73) | binds
24 | LEUNIG (protein, UniProt Q9FUY2 1-931) MSQTNWEADKMLDVYIHDYLVKRDLKATAQAFQAEGKVSSDPVAIDAPGGFLFEWWSVFWDIFIARTNEKHSEVAASYIETQMIKAREQQLQQSQHPQVSQQQQQQQQQQIQMQQLLLQRAQQQQQQQQQQHHHHQQQQQQQQQQQQQQQQQQQQHQNQPPSQQQQQQSTPQHQQQPTPQQQPQRRDGSHLANGSANGLVGNNSEPVMRQNPGSGSSLASKAYEERVKMPTQRESLDEAAMKRFGDNVGQLLDPSHASILKSAAASGQPAGQVLHSTSGGMSPQVQTRNQQLPGSAVDIKSEINPVLTPRTAVPEGSLIGIPGSNQGSNNLTLKGWPLTGFDQLRSGLLQQQKPFMQSQSFHQLNMLTPQHQQQLMLAQQNLNSQSVSEENRRLKMLLNNRSMTLGKDGLGSSVGDVLPNVGSSLQPGGSLLPRGDTDMLLKLKMALLQQQQQNQQQGGGNPPQPQPQPQPLNQLALTNPQPQSSNHSIHQQEKLGGGGSITMDGSISNSFRGNEQVLKNQSGRKRKQPVSSSGPANSSGTANTAGPSPSSAPSTPSTHTPGDVISMPNLPHSGGSSKSMMMFGTEGTGTLTSPSNQLADMDRFVEDGSLDDNVESFLSQEDGDQRDAVTRCMDVSKGFTFTEVNSVRASTTKVTCCHFSSDGKMLASAGHDKKAVLWYTDTMKPKTTLEEHTAMITDIRFSPSQLRLATSSFDKTVRVWDADNKGYSLRTFMGHSSMVTSLDFHPIKDDLICSCDNDNEIRYWSINNGSCTRVYKGGSTQIRFQPRVGKYLAASSANLVNVLDVETQAIRHSLQGHANPINSVCWDPSGDFLASVSEDMVKVWTLGTGSEGECVHELSCNGNKFQSCVFHPAYPSLLVIGCYQSLELWNMSENKTMTLPAHEGLITSLAVSTATGLVASASHDKLVKLWK | binds
25 | J3 (protein, UniProt Q94AW8 1-420) MFGRGPSKKSDNTKFYEILGVPKSASPEDLKKAYKKAAIKNHPDKGGDPEKFKELAQAYEVLSDPEKREIYDQYGEDALKEGMGGGGGGHDPFDIFSSFFGGGPFGGNTSRQRRQRRGEDVVHPLKVSLEDVYLGTMKKLSLSRNALCSKCNGKGSKSGASLKCGGCQGSGMKVSIRQLGPGMIQQMQHACNECKGTGETINDRDRCPQCKGDKVIPEKKVLEVNVEKGMQHSQKITFEGQADEAPDTVTGDIVFVLQQKEHPKFKRKGEDLFVEHTLSLTEALCGFQFVLTHLDGRSLLIKSNPGEVVKPDSYKAISDEGMPIYQRPFMKGKLYIHFTVEFPDSLSPDQTKALEAVLPKPSTAQLSDMEIDECEETTLHDVNIEDEMRRKAQAQREAYDDDDEDDDHPGGAQRVQCAQQ | binds
26 | HOP2 (protein, UniProt Q5XEP2 1-571) MADEAKAKGNAAFSSGDFNSAVNHFTDAINLTPTNHVLFSNRSAAHASLNHYDEALSDAKKTVELKPDWGKGYSRLGAAHLGLNQFDEAVEAYSKGLEIDPSNEGLKSGLADAKASASRSRASAPNPFGDAFQGPEMWSKLTADPSTRGLLKQPDFVNMMKEIQRNPSNLNLYLQDQRVMQALGVLLNIQIRTQQAGDDMEIGEEEMAVPSRKEPEVEKKRKPEPEPEPEPEFGEEKQKKLKAQKEKELGNAAYKKKDFETAIQHYSTAMEIDDEDISYITNRAAVHLEMGKYDECIKDCDKAVERGRELRSDYKMVAKALTRKGTALGKMAKVSKDYEPVIQTYQKALTEHRNPETLKRLNEAERAKKELEQQEYYDPNIGDEEREKGNDFFKEQKYPDAVRHYTEAIKRNPKDPRAYSNRAACYTKLGAMPEGLKDAEKCIELDPTFLKGYSRKGAVQFFMKEYDNAMETYQKGLEHDPNNQELLDGVKRCVQQINKANRGDLTPEELKERQAKGMQDPEIQNILTDPVMRQVLSDLQENPAAAQKHMQNPMIMNKIQKLISSGIVQMK | binds
27 | P23-1 (protein, UniProt Q8L7U4 1-241) MSRHPEVKWAETTEKIFLTVVLADTKDTKVNLDPEGVFDFSAKVGPENHVYELKLELADKVNVEESKINIGERSIFCIIEKAEPERWNKLLRVKKPPHYVKVDWDKWVDEDDEGSAGAADMDMAGMEGMGGMGGMGGMGGMGGMGGMGGMGGMEGMDFSKLMGGMGGMGGMGGLEGLGGMGGMGGMGGMGGMGGMEEFEDSDDEEETAKSGDKKDDAVKEEGLATEKAPAAEETTSVKEDK | binds
28 | AT5G56460 (putative protein kinase) (protein, UniProt Q9FM85 1-408) MGNCWCRFEPLNHRVSANAKSESPKEQSPTVEDKHIKEVQKLPSNPKEVEDLRRDSAANPLIAFTYEELKNITSNFRQDRVLGGGGFGSVYKGFIKEDLGDQEVPEPLPVAVKVHDGDNSFQGHREWLAEVIFLGQLSHPNLVKLIGYCCEDNHRVLIYEYMARGSVENNLFSRVLLPLSWAIRMKIAFGAAKGLAFLHEAKKPVIYRDFKTSNILLDMDYNAKLSDFGLAKDGPVGDKSHVSTRIMGTYGYAAPEYIMTGHLTPGSDVYSFGVVLLELLTGRKSLDKSRPTREQNLIDWALPLLKEKKKVLNIVDPKMNCEYPVKAVQKAAMLAYHCLNRNPKARPLMRDIVDSLEPLQATEEEALLVPPVQKAVITIIDEMPKNGLKKVEELKKVEEVKKVIEDAC | binds
29 | SOS2 (protein, UniProt Q9LDI3 1-446) MTKKMRRVGKYEVGRTIGEGTFAKVKFARNTDTGDNVAIKIMAKSTILKNRMVDQIKREISIMKIVRHPNIVRLYEVLASPSKIYIVLEFVTGGELFDRIVHKGRLEESESRKYFQQLVDAVAHCHCKGVYHRDLKPENLLLDTNGNLKVSDFGLSALPQEGVELLRTTCGTPNYVAPEVLSGQGYDGSAADIWSCGVILFVILAGYLPFSETDLPGLYRKINAAEFSCPPWFSAEVKFLIHRILDPNPKTRIQIQGIKKDPWFRLNYVPIRAREEEEVNLDDIRAVFDGIEGSYVAENVERNDEGPLMMNAFEMITLSQGLNLSALFDRRQDFVKRQTRFVSRREPSEIIANIEAVANSMGFKSHTRNFKTRLEGLSSIKAGQLAVVIEIYEVAPSLFMVDVRKAAGETLEYHKFYKKLCSKLENIIWRATEGIPKSEILRTITF | binds
30 | FIP37 (protein, UniProt Q9ZSZ8 1-330) MEFSSQDDDFGGDDSAANATRASGNRRSFGDLEDDEDDIFGSTTVAPGVRTGMILSLRGSLKNCKDDLASCQNELESAKTEIQKWKSAFQNESFVPAGKSPEPRFLIDYIQNLKSSEKSLKEQLEIAKRKEASCIVQYAKREQEMAELKSAVRDLKSQLKPASMQARRLLLDPAIHEEFSRLKNLVEEKDKKIKELQDNIAAVTFTPQSKNGKMLMAKCRTLQEENEEIGHQAAEGKIHELAIKLAMQKSQNAELRSQFEGLYKHMEELTNDVERSNETVIILQEKLEEKEKEIERVKKGLEIVSELVGDKKDEVDEIDEDAKEEIAGGE | binds
31 | HAP1 (protein, UniProt O23676 1-150) MAAEEATEFYLRYYVGHKGKFGHEFLEFEFREDGKLRYANNSNYKNDTIIRKEVFLTPAVLKECKRIVSESEILKEDDNNWPEPDRVGKQELEIVLGNEHISFATSKIGSLVDCQSSNDPEGLRIFYYLVQDLKCLVFSLISLHFKIKPI | binds

Reference: article PMC6791687
